Reference: article PMC7387469
These are yes or no findings as the source states them, for the method shown. Binding seen in cells or lysates may run through a third protein. Some entries that bind do so weakly or less than the wild type.

The chains behind the UniProt entries cited, without tags or fusion partners.
UniProt O43524: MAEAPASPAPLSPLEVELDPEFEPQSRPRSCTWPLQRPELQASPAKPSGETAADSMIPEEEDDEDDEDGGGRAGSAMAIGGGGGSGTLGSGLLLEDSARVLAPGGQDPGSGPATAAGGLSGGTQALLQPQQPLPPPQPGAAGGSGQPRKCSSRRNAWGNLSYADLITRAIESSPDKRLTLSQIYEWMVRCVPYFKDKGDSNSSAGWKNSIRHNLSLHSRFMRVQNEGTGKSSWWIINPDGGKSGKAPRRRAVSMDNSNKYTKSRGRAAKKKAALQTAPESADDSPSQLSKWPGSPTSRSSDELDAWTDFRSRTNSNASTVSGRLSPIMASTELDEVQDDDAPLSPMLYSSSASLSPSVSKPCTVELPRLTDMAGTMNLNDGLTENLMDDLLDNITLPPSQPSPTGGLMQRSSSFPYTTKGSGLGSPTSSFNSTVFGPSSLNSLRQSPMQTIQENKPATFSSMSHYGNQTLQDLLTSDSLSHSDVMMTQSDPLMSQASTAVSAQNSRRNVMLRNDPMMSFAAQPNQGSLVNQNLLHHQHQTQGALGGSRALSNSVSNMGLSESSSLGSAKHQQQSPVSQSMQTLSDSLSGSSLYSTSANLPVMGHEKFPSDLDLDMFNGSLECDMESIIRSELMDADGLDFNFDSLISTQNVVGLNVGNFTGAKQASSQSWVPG

Biological target: Myc-tagged wild-type FTO (UniProt Q9C0B1)
Assay: co-IP; reciprocal co-immunoprecipitation; HA-tagged FOXO3a over-expressed together with Myc-tagged FTO-WT or FTO-Mut in HEK293 cells

binding: binds
Substance: HA-tagged FOXO3a (from UniProt O43524 1-673)
